The values below come from publication PMC2821926.

Chains of the proteins cited; added tags and fusions are not shown. Residues count along the entry.
UniProt P49815: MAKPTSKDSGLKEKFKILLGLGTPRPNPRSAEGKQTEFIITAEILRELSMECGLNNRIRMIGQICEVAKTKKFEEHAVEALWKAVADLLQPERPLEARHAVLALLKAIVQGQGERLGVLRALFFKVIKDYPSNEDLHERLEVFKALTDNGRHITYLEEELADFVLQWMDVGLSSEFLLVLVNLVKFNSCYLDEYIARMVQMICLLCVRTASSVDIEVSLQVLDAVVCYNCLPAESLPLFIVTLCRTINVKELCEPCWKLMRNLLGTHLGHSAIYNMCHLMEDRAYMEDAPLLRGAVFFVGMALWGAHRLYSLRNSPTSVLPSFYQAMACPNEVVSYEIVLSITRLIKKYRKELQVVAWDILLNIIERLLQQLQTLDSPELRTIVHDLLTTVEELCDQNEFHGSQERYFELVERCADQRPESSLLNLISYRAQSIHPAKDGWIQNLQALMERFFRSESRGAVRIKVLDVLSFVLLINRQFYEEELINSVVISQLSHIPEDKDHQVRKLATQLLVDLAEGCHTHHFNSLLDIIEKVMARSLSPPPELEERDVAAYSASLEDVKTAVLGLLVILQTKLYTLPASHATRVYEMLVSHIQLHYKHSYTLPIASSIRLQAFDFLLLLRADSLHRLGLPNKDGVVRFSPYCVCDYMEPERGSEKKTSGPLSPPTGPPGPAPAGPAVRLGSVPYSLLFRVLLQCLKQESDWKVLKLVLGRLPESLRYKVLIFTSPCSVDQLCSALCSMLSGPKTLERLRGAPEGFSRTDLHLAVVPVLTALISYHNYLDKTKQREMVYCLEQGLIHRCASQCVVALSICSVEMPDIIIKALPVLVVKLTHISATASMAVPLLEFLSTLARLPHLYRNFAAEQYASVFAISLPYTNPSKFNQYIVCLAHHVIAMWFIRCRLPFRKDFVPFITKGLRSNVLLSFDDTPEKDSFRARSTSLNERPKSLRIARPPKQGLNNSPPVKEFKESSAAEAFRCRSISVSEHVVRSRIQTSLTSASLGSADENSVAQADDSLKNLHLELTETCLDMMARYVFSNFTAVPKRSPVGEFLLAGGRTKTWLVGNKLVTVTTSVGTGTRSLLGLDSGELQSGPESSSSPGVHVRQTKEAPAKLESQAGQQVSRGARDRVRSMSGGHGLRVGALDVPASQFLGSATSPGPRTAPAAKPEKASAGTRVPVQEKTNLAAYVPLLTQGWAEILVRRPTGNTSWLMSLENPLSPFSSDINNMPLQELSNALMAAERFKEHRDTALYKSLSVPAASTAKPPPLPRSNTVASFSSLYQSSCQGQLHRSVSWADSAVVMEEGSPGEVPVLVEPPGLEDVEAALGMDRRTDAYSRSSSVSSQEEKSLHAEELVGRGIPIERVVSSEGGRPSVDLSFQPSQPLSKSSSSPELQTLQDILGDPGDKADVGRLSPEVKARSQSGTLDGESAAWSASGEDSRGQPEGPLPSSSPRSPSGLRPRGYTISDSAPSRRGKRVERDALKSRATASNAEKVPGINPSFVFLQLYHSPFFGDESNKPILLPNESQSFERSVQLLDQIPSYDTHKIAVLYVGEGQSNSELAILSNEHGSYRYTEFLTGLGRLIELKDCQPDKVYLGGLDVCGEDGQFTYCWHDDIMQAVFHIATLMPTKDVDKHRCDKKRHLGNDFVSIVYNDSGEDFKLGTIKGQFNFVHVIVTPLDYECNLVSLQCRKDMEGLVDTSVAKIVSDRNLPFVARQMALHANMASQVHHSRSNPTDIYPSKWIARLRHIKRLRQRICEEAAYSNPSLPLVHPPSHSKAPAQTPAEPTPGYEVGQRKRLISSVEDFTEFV
UniProt P98161, residues 4106-4303: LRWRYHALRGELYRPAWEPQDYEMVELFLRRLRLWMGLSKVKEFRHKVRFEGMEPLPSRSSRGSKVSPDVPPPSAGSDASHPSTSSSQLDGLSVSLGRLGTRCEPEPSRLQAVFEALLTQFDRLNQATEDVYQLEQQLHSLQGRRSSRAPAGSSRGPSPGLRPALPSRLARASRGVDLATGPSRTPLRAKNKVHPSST

No constants are given. Whether binding was seen depends on the method and setting. Binding seen in cells or lysates may run through a third protein. Some results given as binding are weak or reduced against the parent protein; the word gives no strength.

The target in the experiment is tuberous sclerosis complex 2 (TSC2) tumor suppressor (human (endogenous in HEK-293)) (UniProt P49815). Kind of experiment: co-IP; lysates of transfected HEK-293 cells (expressing CD44-CP1 or Flag-CP1; Flag-TSC1 for the TSC1-TSC2 pair) incubated with anti-TSC2 or anti-TSC1 antibody and protein A and protein G Sepharose overnight at 4°C; washed with 10 mM Tris pH 7.5, 1% NP-40, 1% Triton X-100, 100 mM NaCl; immunoblot with E1/2, anti-Flag or anti-TSC2. Background: A western blot detects proteins with antibodies after separation by electrophoresis.

Turning to “Flag-CP1 (soluble C-terminal tail of human polycystin-1, aa 4106-4303) (from UniProt P98161 4106-4303) (domain or fragment)”, the binding result is given as “binds”.
Turning to “CD44-CP1 (C-terminal tail of human polycystin-1, aa 4106-4303, tagged with the extracellular and transmembrane region of CD44) (from UniProt P98161 4106-4303) (domain or fragment)”, the binding result is “binds”.
